Reference: PubChem BioAssay AID1259308 (NCATS, 2017)
Assay: 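Candidate targets for better recombinant protein yield in mammalian cells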 (primary screen). System: human HEK293 embryonic kidney cells stably expressing firefly luciferase (HEK-CMV-Luc2-Hygro). Knock-down reagent: single siRNA against human genes, 0.8 pmol siRNA per well. Duration: 72 h. Measurement: 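Luciferase light (ONE-Glo) measured on one replicate plate set and viability (CellTiter-Glo) on the other, scaled to a negative control siRNA, with robust z-scores and luciferase per cell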. Reading the numbers: total luciferase, z-score and total luciferase, % of control: higher = more reporter protein produced; luciferase per cell, z-score: higher = more reporter output per viable cell. Hit rule: 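An siRNA counts as active if its total luciferase robust z-score exceeds 3; genes with two or more such siRNAs out of three were retested with fresh siRNAs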. Meaning of the calls: active = raised luciferase; inactive = no rise.
Shown is one part, drawn at random, of about 59,000 reagents tested. Over the whole deposit, about 1,510 (2.6%) are marked active. 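Calls use total luciferase alone and ignore viability, so some active siRNAs may act by altering cell number.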 Reagents against one gene are numbered here. Further read-outs or replicates are left out here.

| Gene | reagent no. | total luciferase, z-score | total luciferase, % of control | luciferase per cell, z-score | outcome |
| --- | --- | --- | --- | --- | --- |
| EVI5L (ecotropic viral integration site 5 like) | 1 | -0.17 | 78.5 | -0.01 | inactive |
| EVI5L (ecotropic viral integration site 5 like) | 2 | 1.83 | 118 | 1.25 | inactive |
| EVI5L (ecotropic viral integration site 5 like) | 3 | -0.162 | 78.7 | -0.302 | inactive |
| PHLDA1 (pleckstrin homology like domain family A member 1) | 1 | -0.209 | 77.7 | 0.472 | inactive |
| PHLDA1 (pleckstrin homology like domain family A member 1) | 2 | -1.27 | 56.7 | -2 | inactive |
| PHLDA1 (pleckstrin homology like domain family A member 1) | 3 | -0.756 | 66.9 | -0.627 | inactive |
| ANO10 (anoctamin 10) | 1 | -0.266 | 76.6 | -0.000521 | inactive |
| ANO10 (anoctamin 10) | 2 | -0.341 | 75.1 | -0.908 | inactive |
| ANO10 (anoctamin 10) | 3 | 0.368 | 89.2 | 0.261 | inactive |
| CNOT12 (CCR4-NOT transcription complex subunit 12) | 1 | 0.382 | 89.5 | 1.62 | inactive |
| CNOT12 (CCR4-NOT transcription complex subunit 12) | 2 | -0.581 | 70.3 | -0.625 | inactive |
| CNOT12 (CCR4-NOT transcription complex subunit 12) | 3 | 1.23 | 106 | 0.552 | inactive |
| ATG3 (autophagy related 3) | 1 | 0.102 | 83.9 | 0.0903 | inactive |
| ATG3 (autophagy related 3) | 2 | 0.812 | 98 | 0.0359 | inactive |
| ATG3 (autophagy related 3) | 3 | -1.74 | 47.3 | -0.628 | inactive |
| CDT1 (chromatin licensing and DNA replication factor 1) | 1 | 1.63 | 114 | 1.49 | inactive |
| CDT1 (chromatin licensing and DNA replication factor 1) | 2 | -1.29 | 56.3 | -1.21 | inactive |
| CDT1 (chromatin licensing and DNA replication factor 1) | 3 | 1.62 | 114 | 1.51 | inactive |
| OR2L2 (olfactory receptor family 2 subfamily L member 2) | 1 | -0.804 | 65.9 | -1.22 | inactive |
| OR2L2 (olfactory receptor family 2 subfamily L member 2) | 2 | 0.274 | 87.3 | 0.604 | inactive |
| OR2L2 (olfactory receptor family 2 subfamily L member 2) | 3 | -0.621 | 69.5 | -1.06 | inactive |
| CARNS1 (carnosine synthase 1) | 1 | 2.11 | 124 | 1.74 | inactive |
| CARNS1 (carnosine synthase 1) | 2 | -0.37 | 74.5 | -0.574 | inactive |
| CARNS1 (carnosine synthase 1) | 3 | 0.0699 | 83.3 | -0.29 | inactive |
| MRPL58 (mitochondrial ribosomal protein L58) | 1 | -0.437 | 73.2 | -0.57 | inactive |
| MRPL58 (mitochondrial ribosomal protein L58) | 2 | -0.0203 | 81.5 | 1.08 | inactive |
| MRPL58 (mitochondrial ribosomal protein L58) | 3 | -0.064 | 80.6 | -0.119 | inactive |
| LOC728353 (retired record) | 1 | 1.42 | 110 | 1.11 | inactive |
| LOC728353 (retired record) | 2 | 0.536 | 92.5 | 0.625 | inactive |
| LOC728353 (retired record) | 3 | 1.67 | 115 | 1.48 | inactive |
| LOC401052 (retired record) | 1 | 2.12 | 124 | 1.21 | inactive |
| LOC401052 (retired record) | 2 | -0.0464 | 81 | -0.55 | inactive |
| LOC401052 (retired record) | 3 | 1.43 | 110 | 0.385 | inactive |

Part of the list above, set out differently:
Gene	reagent no.	total luciferase, z-score	total luciferase, % of control	luciferase per cell, z-score	outcome
PHLDA1 (pleckstrin homology like domain family A member 1)	2	-1.27	56.7	-2	inactive
PHLDA1 (pleckstrin homology like domain family A member 1)	3	-0.756	66.9	-0.627	inactive
ANO10 (anoctamin 10)	1	-0.266	76.6	-0.000521	inactive
ANO10 (anoctamin 10)	2	-0.341	75.1	-0.908	inactive
ANO10 (anoctamin 10)	3	0.368	89.2	0.261	inactive
CNOT12 (CCR4-NOT transcription complex subunit 12)	1	0.382	89.5	1.62	inactive

Next records follow:
| Gene | reagent no. | total luciferase, z-score | total luciferase, % of control | luciferase per cell, z-score | outcome |
| --- | --- | --- | --- | --- | --- |
| STARD7 (StAR related lipid transfer domain containing 7) | 1 | 0.747 | 96.7 | 0.201 | inactive |
| STARD7 (StAR related lipid transfer domain containing 7) | 2 | 1.2 | 106 | 0.845 | inactive |
| STARD7 (StAR related lipid transfer domain containing 7) | 3 | -0.578 | 70.4 | -0.742 | inactive |
| KIF22 (kinesin family member 22) | 1 | 0.285 | 87.5 | 0.163 | inactive |
| KIF22 (kinesin family member 22) | 2 | -1.42 | 53.7 | -1.35 | inactive |
| KIF22 (kinesin family member 22) | 3 | -0.815 | 65.7 | -0.626 | inactive |
| MINDY4B (MINDY family member 4B) | 1 | -1.31 | 55.8 | -0.722 | inactive |
| MINDY4B (MINDY family member 4B) | 2 | -0.0224 | 81.4 | -0.151 | inactive |
| MINDY4B (MINDY family member 4B) | 3 | 2.57 | 133 | 1.79 | inactive |
| VSIG4 (V-set and immunoglobulin domain containing 4) | 1 | -0.562 | 70.7 | 0.849 | inactive |
| VSIG4 (V-set and immunoglobulin domain containing 4) | 2 | 2.01 | 122 | 1.6 | inactive |
| VSIG4 (V-set and immunoglobulin domain containing 4) | 3 | 1.55 | 113 | 1.47 | inactive |
| SEPTIN7 (septin 7) | 1 | -0.748 | 67 | -0.382 | inactive |
| SEPTIN7 (septin 7) | 2 | -0.119 | 79.5 | -0.0635 | inactive |
| SEPTIN7 (septin 7) | 3 | -1.06 | 60.8 | -2.14 | inactive |
| GLRX3 (glutaredoxin 3) | 1 | 0.179 | 85.5 | -0.14 | inactive |
| GLRX3 (glutaredoxin 3) | 2 | 0.171 | 85.3 | -0.532 | inactive |
| GLRX3 (glutaredoxin 3) | 3 | 0.00329 | 82 | -0.583 | inactive |
| HLA-DQB1 (major histocompatibility complex, class II, DQ beta 1) | 1 | -0.0246 | 81.4 | 2.17 | inactive |
| HLA-DQB1 (major histocompatibility complex, class II, DQ beta 1) | 2 | -0.117 | 79.6 | -0.344 | inactive |
| HLA-DQB1 (major histocompatibility complex, class II, DQ beta 1) | 3 | 2.02 | 122 | 1.71 | inactive |
| GNAT2 (G protein subunit alpha transducin 2) | 1 | -0.447 | 73 | -0.707 | inactive |
| GNAT2 (G protein subunit alpha transducin 2) | 2 | -0.305 | 75.8 | 0.428 | inactive |
| GNAT2 (G protein subunit alpha transducin 2) | 3 | 0.397 | 89.8 | 0.489 | inactive |
